From patent US20090111751A1, “Method of Removing a Non-Metallic Protein Inhibitor From a Liquid Pharmaceutical Preparation” (Novo Nordisk Health Care AG, priority 2006, published 2009)

Assay: Removal of inhibitor from a rFVIIa formulation on a Chelex 100 column, content by GPC
Conditions: elution volume 0.5 ml to 3 ml
Procedure: The ability of Chelex 100 to remove inhibitor 2-[3-(4-Carbamimidoylphenyl)-ureido]-N-[1-(3-methoxyphenyl)-ethyl]-acetamide from a rFVIIa formulation was investigated in the following way: […]
A (frozen) solution of rFVIIa bulk containing 1.4 mg/ml rFVIIa, 50 mM NaCl, 10 mM CaCl2 2H2O and 10 mM Glycylglycine was thawed and mixed with an inhibitor solution of 4.5 mM inhibitor 2-[3-(4-Carbamimidoylphenyl)-ureido]-N-[1-(3-methoxyphenyl)-ethyl]-acetamide containing 50 mM NaCl, 10 mM CaCl2 2H2O and 10 mM Glycylglycine.
The mixture ratio was: rFVIIa bulk:inhibitor solution=2:1. the final solution 10 mM histidine was added and pH was adjusted to 6.50.
Chelex was prepared in the following way:
A NAP™ column from Pharmacia was emptied for column material which was replaced by Chelex 100 material corresponding to a column height of approximately 3 mm. The column was equilibrated with the following buffer: 50 mM NaCl, 10 mM Histidine and 10 mM Glycylglycine, pH=6.50.
10 ml of the rFVIIa/inhibitor solution was added to the column in aliquots of 0.5 ml and was collected in fractions of 0.5 ml.
The samples was analysed for content of inhibitor and rFVIIa by GPC.

COc1cccc(C(C)NC(=O)CNC(=O)Nc2ccc(C(=N)N)cc2)c1 (centres unmarked) [2-[3-(4-Carbamimidoylphenyl)-ureido]-N-[1-(3-methoxyphenyl)-ethyl]-acetamide]
inhibitor concentration in eluate after Chelex 100 column (initial value 1.5 mM, pH 6.50): less than 175 microM
reduction factor of inhibitor concentration (relative to initial value 1.5 mM): approximately 10
